Holding throughout (assay): two-hybrid; ProQuest two-hybrid system (Invitrogen) in yeast; bait in pDEST32 (GAL4 DNA-binding domain), prey in pDEST22 (GAL4 activation domain); 3-AT assay: growth on SD3- (Leu-/Trp-/His-) media with 0, 10, 20 and 40 mM 3-AT, 30°C, 2 days; criterion of interaction: a colony on SD3- media with 20 mM 3-AT
Experiment [1] deals with T1, plant and prokaryotes conserved (PPC) domain of AHL4 (Arabidopsis thaliana) (UniProt Q9FHM5).
T1 sequence: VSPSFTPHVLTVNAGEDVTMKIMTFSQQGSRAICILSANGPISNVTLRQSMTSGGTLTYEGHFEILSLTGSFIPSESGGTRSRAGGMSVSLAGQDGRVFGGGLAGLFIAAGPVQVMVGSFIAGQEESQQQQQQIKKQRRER

Experiment [2] deals with T2, AT-HOOK MOTIF NUCLEAR LOCALIZED PROTEIN 3 (AHL3), full-length (Arabidopsis thaliana) (UniProt Q9SB31).
T2 sequence: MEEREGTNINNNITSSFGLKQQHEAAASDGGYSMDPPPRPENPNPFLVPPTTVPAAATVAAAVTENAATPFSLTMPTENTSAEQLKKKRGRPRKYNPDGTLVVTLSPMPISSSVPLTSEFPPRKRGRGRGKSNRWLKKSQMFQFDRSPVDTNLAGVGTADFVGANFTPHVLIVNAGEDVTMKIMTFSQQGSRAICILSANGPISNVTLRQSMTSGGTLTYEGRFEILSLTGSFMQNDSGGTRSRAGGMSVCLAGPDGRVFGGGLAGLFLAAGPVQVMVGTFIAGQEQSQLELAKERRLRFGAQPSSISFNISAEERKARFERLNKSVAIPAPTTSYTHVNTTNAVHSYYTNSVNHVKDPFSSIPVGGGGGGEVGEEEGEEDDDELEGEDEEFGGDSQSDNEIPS

Experiment [3] deals with T3, plant and prokaryotes conserved (PPC) domain of AHL3 (Arabidopsis thaliana) (UniProt Q9SB31).
T3 sequence: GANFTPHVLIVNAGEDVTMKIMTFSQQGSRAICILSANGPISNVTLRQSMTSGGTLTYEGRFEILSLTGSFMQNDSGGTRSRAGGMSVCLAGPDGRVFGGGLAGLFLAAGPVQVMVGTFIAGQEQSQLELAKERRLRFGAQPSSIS

This is an account of results in article PMC8056045.

Results are given in words; binding and its absence hold for the method and conditions named. Some entries that bind do so weakly or less than the wild type.

B1: AT-HOOK MOTIF NUCLEAR LOCALIZED PROTEIN 20 (AHL20) (protein, UniProt Q8GWQ2 1-281)
chain: MANPWWTNQSGLAGMVDHSVSSGHHQNHHHQSLLTKGDLGIAMNQSQDNDQDEEDDPREGAVEVVNRRPRGRPPGSKNKPKAPIFVTRDSPNALRSHVLEISDGSDVADTIAHFSRRRQRGVCVLSGTGSVANVTLRQAAAPGGVVSLQGRFEILSLTGAFLPGPSPPGSTGLTVYLAGVQGQVVGGSVVGPLLAIGSVMVIAATFSNATYERLPMEEEEDGGGSRQIHGGGDSPPRIGSNLPDLSGMAGPGYNMPPHLIPNGAGQLGHEPYTWVHARPPY
Take B1: the binding entry in experiment [1] was “no binding”.

B2: AT-HOOK MOTIF NUCLEAR LOCALIZED PROTEIN 1 (AHL1) (protein, UniProt Q8VYJ2 1-356)
chain: MVLNMESTGEAVRSTTGNDGGITVVRSDAPSDFHVAQRSESSNQSPTSVTPPPPQPSSHHTAPPPLQISTVTTTTTTAAMEGISGGLMKKKRGRPRKYGPDGTVVALSPKPISSAPAPSHLPPPSSHVIDFSASEKRSKVKPTNSFNRTKYHHQVENLGEWAPCSVGGNFTPHIITVNTGEDVTMKIISFSQQGPRSICVLSANGVISSVTLRQPDSSGGTLTYEGRFEILSLSGSFMPNDSGGTRSRTGGMSVSLASPDGRVVGGGLAGLLVAASPVQVVVGSFLAGTDHQDQKPKKNKHDFMLSSPTAAIPISSAADHRTIHSVSSLPVNNNTWQTSLASDPRNKHTDINVNVT
B2: the binding entry in experiment [2] and in experiment [1] was “binds” each time.

B3: AT-HOOK MOTIF NUCLEAR LOCALIZED PROTEIN 3 (AHL3), full-length (protein, UniProt Q9SB31 1-404)
chain: MEEREGTNINNNITSSFGLKQQHEAAASDGGYSMDPPPRPENPNPFLVPPTTVPAAATVAAAVTENAATPFSLTMPTENTSAEQLKKKRGRPRKYNPDGTLVVTLSPMPISSSVPLTSEFPPRKRGRGRGKSNRWLKKSQMFQFDRSPVDTNLAGVGTADFVGANFTPHVLIVNAGEDVTMKIMTFSQQGSRAICILSANGPISNVTLRQSMTSGGTLTYEGRFEILSLTGSFMQNDSGGTRSRAGGMSVCLAGPDGRVFGGGLAGLFLAAGPVQVMVGTFIAGQEQSQLELAKERRLRFGAQPSSISFNISAEERKARFERLNKSVAIPAPTTSYTHVNTTNAVHSYYTNSVNHVKDPFSSIPVGGGGGGEVGEEEGEEDDDELEGEDEEFGGDSQSDNEIPS
With B3, the binding entry in experiment [3] and in experiment [1] was “binds” in each case.

B4: AT-HOOK MOTIF NUCLEAR LOCALIZED PROTEIN 2 (AHL2) (protein, UniProt O49658 1-334)
chain: METTGEVVKTTTGSDGGVTVVRSNAPSDFHMAPRSETSNTPPNSVAPPPPPPPQNSFTPSAAMDGFSSGPIKKRRGRPRKYGHDGAAVTLSPNPISSAAPTTSHVIDFSTTSEKRGKMKPATPTPSSFIRPKYQVENLGEWSPSSAAANFTPHIITVNAGEDVTKRIISFSQQGSLAICVLCANGVVSSVTLRQPDSSGGTLTYEGRFEILSLSGTFMPSDSDGTRSRTGGMSVSLASPDGRVVGGGVAGLLVAATPIQVVVGTFLGGTNQQEQTPKPHNHNFMSSPLMPTSSNVADHRTIRPMTSSLPISTWTPSFPSDSRHKHSHDFNITLT
For the molecule B4, the binding entry in experiment [1] is “no binding”.

B5: AT-HOOK MOTIF NUCLEAR LOCALIZED PROTEIN 16 (AHL16) (protein, UniProt Q9SJG4 1-257)
chain: MAGGTALTPTSVGSKSVPMRNHEATERGNTNNNLRALPKAVQPVSSIEGEMAKRPRGRPAGSKNKPKPPIIVTHDSPNSLRANAVEISSGCDICETLSDFARRKQRGLCILSANGCVTNVTLRQPASSGAIVTLHGRYEILSLLGSILPPPAPLGITGLTIYLAGPQGQVVGGGVVGGLIASGPVVLMAASFMNAVFDRLPMDDDEAASMQNQQYYQNGRSRPLDDIHGLPQNLLTNGNSASDIYSWGPAQRVMSKP
For B5, the binding result in experiment [1] is listed as “no binding”.

B6: AT-HOOK MOTIF NUCLEAR LOCALIZED PROTEIN 21 (AHL21) (protein, UniProt O82166 1-285)
chain: MAGLDLGTTSRYVHNVDGGGGGQFTTDNHHEDDGGAGGNHHHHHHNHNHHQGLDLIASNDNSGLGGGGGGGSGDLVMRRPRGRPAGSKNKPKPPVIVTRESANTLRAHILEVGSGCDVFECISTYARRRQRGICVLSGTGTVTNVSIRQPTAAGAVVTLRGTFEILSLSGSFLPPPAPPGATSLTIFLAGAQGQVVGGNVVGELMAAGPVMVMAASFTNVAYERLPLDEHEEHLQSGGGGGGGNMYSEATGGGGGLPFFNLPMSMPQIGVESWQGNHAGAGRAPF
Turning to B6, the binding entry in experiment [1] is reported as “no binding”.

B7: AT-HOOK MOTIF NUCLEAR LOCALIZED PROTEIN 7 (AHL7) (protein, UniProt Q4V3E0 1-318)
chain: METSDRISPGGGIGAEVPSAYHMAPRPSDSPANQFMGLSLPPMEAPMPSSGEASGKKRRGRPRKYEANGAPLPSSSVPLVKKRVRGKLNGFDMKKMHKTIGFHSSGERFGVGGGVGGGVGSNFTPHVITVNTGEDITMRIISFSQQGPRAICILSANGVISNVTLRQPDSCGGTLTYEGRFEILSLSGSFMETENQGSKGRSGGMSVSLAGPDGRVVGGGVAGLLIAATPIQVVVGSFITSDQQDHQKPRKQRVEHAPAAVMSVPPPPSPPPPAASVFSPTNPDREQPPSSFGISSWTNGQDMPRNSATDINISLPVD
As to B7, in experiment [1], the binding entry is reported as “binds”.

B8: AT-HOOK MOTIF NUCLEAR LOCALIZED PROTEIN 6 (AHL6) (protein, UniProt Q9LVB0 1-404)
chain: MEEKGEISPSGVVTVKGDEALVPRTEFQQNPSFLQFVSPTTVVTPLPPPPAPSSAPVPTTVTPGSATASTGSDPTKKKRGRPRKYAPDGSLNPRFLRPTLSPTPISSSIPLSGDYQWKRGKAQQQHQPLEFVKKSHKFEYGSPAPTPPLPGLSCYVGANFTTHQFTVNGGEDVTMKVMPYSQQGSRAICILSATGSISNVTLGQPTNAGGTLTYEGRFEILSLSGSFMPTENGGTKGRAGGMSISLAGPNGNIFGGGLAGMLIAAGPVQVVMGSFIVMHQAEQNQKKKPRVMEAFAPPQPQAPPQLQQQQPPTFTITTVNSTSPSVNTVEEQKPQAYGGGIVRPMAQMPSSFQNDNSTMNNFTPAYHGYGNMNTGTTHKEEHEDEDGGDDDDDSGDTRSQSHSG
As to B8, the binding entry in experiment [1] was “binds”.

B9: AT-HOOK MOTIF NUCLEAR LOCALIZED PROTEIN 4 (AHL4), full-length (protein, UniProt Q9FHM5 1-419)
chain: MEEREGTNINNIPTSFGLKQHETPLPPPGYPPRSENPNLFPVGQSSTSSAAAAVKPSENVAPPFSLTMPVENSSSELKKKRGRPRKYNPDGSLAVTLSPMPISSSVPLTSEFGSRKRGRGRGRGRGRGRGRGQGQGSREPNNNNNDNNWLKNPQMFEFNNNTPTSGGGGPAEIVSPSFTPHVLTVNAGEDVTMKIMTFSQQGSRAICILSANGPISNVTLRQSMTSGGTLTYEGHFEILSLTGSFIPSESGGTRSRAGGMSVSLAGQDGRVFGGGLAGLFIAAGPVQVMVGSFIAGQEESQQQQQQIKKQRRERLGIPTTTQASNISFGGSAEDPKARYGLNKPVVIQPPPVSAPPVSFSHEPSTNTVHGYYANNTANHIKDLFSSLPGEDREEDEDDLEGEDDEEFGGHSESDTEVPS
In the case of B9, the binding result in experiment [3] and in experiment [1] was “binds” each time.

B10: AT-HOOK MOTIF NUCLEAR LOCALIZED PROTEIN 19 (AHL19) (protein, UniProt Q9SR17 1-315)
chain: MANPWWTGQVNLSGLETTPPGSSQLKKPDLHISMNMAMDSGHNNHHHHQEVDNNNNDDDRDNLSGDDHEPREGAVEAPTRRPRGRPAGSKNKPKPPIFVTRDSPNALKSHVMEIASGTDVIETLATFARRRQRGICILSGNGTVANVTLRQPSTAAVAAAPGGAAVLALQGRFEILSLTGSFLPGPAPPGSTGLTIYLAGGQGQVVGGSVVGPLMAAGPVMLIAATFSNATYERLPLEEEEAAERGGGGGSGGVVPGQLGGGGSPLSSGAGGGDGNQGLPVYNMPGNLVSNGGSGGGGQMSGQEAYGWAQARSGF
As for B10, the binding result in experiment [1] is recorded as “no binding”.

B11: AT-HOOK MOTIF NUCLEAR LOCALIZED PROTEIN 15 (AHL15) (protein, UniProt Q9M2S3 1-310)
chain: MANPWWVGNVAIGGVESPVTSSAPSLHHRNSNNNNPPTMTRSDPRLDHDFTTNNSGSPNTQTQSQEEQNSRDEQPAVEPGSGSGSTGRRPRGRPPGSKNKPKSPVVVTKESPNSLQSHVLEIATGADVAESLNAFARRRGRGVSVLSGSGLVTNVTLRQPAASGGVVSLRGQFEILSMCGAFLPTSGSPAAAAGLTIYLAGAQGQVVGGGVAGPLIASGPVIVIAATFCNATYERLPIEEEQQQEQPLQLEDGKKQKEENDDNESGNNGNEGSMQPPMYNMPPNFIPNGHQMAQHDVYWGGPPPRAPPSY
As to B11, in experiment [1], the binding entry was “no binding”.
